Measurements taken from PubChem BioAssay AID1471 (National Center for Advancing Translational Sciences (NCATS), 2008).
“And” between values parts separate entries of the source, which are not always exact repeats. Equal values may be shown once. Hit rate of the full screen: of about 230,000 compounds, about 310 (0.13%) were called active. The shares of active, inactive and inconclusive entries below differ from those in the screen. Calls come from the whole dose curve; as a rule, active = well fitted activation curve with a large enough effect; inconclusive = small, poorly fitted or top-dose-only effect; inactive = no such curve, though single readings can be large or run the other way. Where the call is inconclusive, the potency comes from a doubtful curve fit.

assay: qHTS Multiplex Assay to Identify Dual Action Probes in a Cell Model of Huntington: Cytoprotection (ATP); settings: PC12 HTT-Q103 induced, ATP luminescence, 40 h; cytoprotection (ATP increase): at 56.4 µM (top of the series) unless noted; note: nearly all actives have a fitted effect of over 45% in size;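 for cytoprotection (ATP increase): toxic huntingtin expression switched on by the ecdysone agonist tebufenozide; % of control where 0% means no effect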
Method in brief: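 Stable PC12 Q103-GFP cells in serum-supplemented, phenol red-free DMEM; induction by tebufenozide at 100 nM final; compound dose series; cell viability quantified luminescently from ATP.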
Potency is the fitted concentration of half-maximal effect.

Row | Compound | Potency | cytoprotection (ATP increase)
1 | Cc1ccccc1-n1c(=O)[nH]c(=O)c2c(N)c(C(=O)c3ccc(Cl)cc3)sc21 | inconclusive: 5.62 µM [activator, single point] | –
2 | COCCCNS(=O)(=O)c1ccc(SC)cc1 | – | inactive: 11.1% [at 10 µM]
3 | CCOC(=O)c1c(NC(=O)/C=C\C(=O)O)sc(C)c1-c1ccccc1 | inconclusive: 31.6 µM [activator, single point] | –
4 | S=C1NCCc2ccc(Cl)cc2C1c1ccccc1Cl (configuration not stated) | inconclusive: 3.98 µM [activator, single point] | –
5 | COc1ccccc1C(=O)C1CCCN(C(=O)c2cccc(-n3cccn3)c2)C1 (configuration not stated) | inconclusive: 3.55 µM [activator, single point] | –
6 | O=C(O)c1cc([N+](=O)[O-])ccc1NCCCc1ccccc1 | inactive and inconclusive: 12.6 µM [activator, single point] | –
7 | COc1ccc(CNCC(=O)Nc2cccc(S(N)(=O)=O)c2)cc1 | inconclusive: 1.26 µM [activator, single point] | –
8 | CC(C)C(c1nnnn1C(C)(C)C)N1CCN(Cc2cccnc2)CC1 (configuration not stated) | inconclusive: 0.631 µM [activator, single point] | –
9 | COc1ccccc1NC1=C(Cl)C(=O)OC1OC(=O)c1ccco1 (configuration not stated) | inconclusive: 11.2 µM [activator, single point] | –
10 | Cc1ccc(NC(=O)CSc2nc3ccccc3c(=O)n2Cc2cccs2)cc1 | inconclusive: 3.16 µM [activator, single point] | –
11 | CCCCC/C=C\C[C@H](O)/C=C/C=C/C=C/[C@@H](O)CCCC(=O)O | inconclusive: 5.62 µM [activator, single point] | –
12 | COc1cccc([C@@H]2Oc3ccc(Br)cc3C(=O)[C@H]2OC(=O)Nc2ccc(C)c(Br)c2)c1 | inconclusive: 0.631 µM [activator, full curve] | –
13 | Cc1nn(CC#N)c(=O)n1-c1ccc(C(C)C)cc1 | inconclusive: 5.62 µM [activator, single point] | –
14 | COc1ccc(Br)cc1CN1CCN(C(=O)c2ccc(F)cc2)CC1 | – | inactive: 11.3% [at 10 µM]
15 | COc1cc(OC)c2c(c1Cl)O[C@@]1(C2=O)[C@H](C)CC(=O)C[C@@H]1OC | inactive | –
16 | C/C(CCc1ccc2c(c1)OCO2)=N\N=C1\NC(=O)CC(C(=O)Nc2ccccc2F)S1 (configuration not stated) | inconclusive: 1.26 µM [activator, single point] | –
17 | CC(C)C(NC(=O)c1ccc(C(C)(C)C)cc1)C(=O)NC1=NCCS1 (configuration not stated) | inconclusive: 6.31 µM [activator, single point] | –
18 | CCOc1ccc(/C=N/NC(=O)C(OC)c2ccccc2)cc1 (configuration not stated) | inconclusive: 1.12 µM [activator, partial curve] | –
19 | CCOC(=O)c1c(C)n(C)c2ccc(OC)c(NC(=O)CN3CCC(C(=O)OCC)CC3)c12 | – | inactive: 32.5% [at 10 µM]
20 | Cc1ccc(C(=O)NNS(=O)(=O)c2ccccc2[N+](=O)[O-])cc1 | – | inactive: -5.48% [at 1.9 µM]
21 | O=C(CSc1nc(-c2ccco2)cc(C(F)(F)F)n1)Nc1ccccc1C(F)(F)F | active: 3.16 µM | –

Row | Compound | Potency | cytoprotection (ATP increase)
22 | CCCCCCNC(=O)c1ncn[nH]1 | inconclusive: 6.31 µM [activator, single point] | –
23 | CN(C)C[C@@H](O)c1ccc(Cl)c2ccccc12 | – | inactive: -9.47% [at 10 µM]
24 | COc1cnc(-c2ccccn2)nc1Oc1c(C)cccc1C | inconclusive: 3.98 µM [activator, single point] | –
25 | CC[N+](CC)(CC(=O)Nc1c(C)cccc1C)Cc1ccccc1 | inconclusive: 7.94 µM [activator, partial curve, poor fit] | –
26 | O=C(NCC(c1ccco1)N1CCCCC1)c1ccc2c(c1)S(=O)(=O)c1ccccc1C2=O (configuration not stated) | inconclusive: 2.82 µM [activator, single point] | –
27 | COc1ccccc1OC[C@H](O)CO | inconclusive: 1.26 µM [activator, partial curve, poor fit] | –
28 | O=C(N/N=C/c1ccc(OCc2ccccc2)cc1)c1ccncc1 | inactive | –
29 | O=C(COC(=O)c1ccccc1C(=O)c1ccccc1)Nc1cccc([N+](=O)[O-])c1 | inconclusive: 0.501 µM [activator, partial curve] | –
30 | CCOC(=O)c1c(C)oc2ccc(O)c(CN3CCCCC3)c12 | inactive | –
31 | O=C(NCCN1C(=O)S/C(=C\c2cccnc2)C1=O)C1CC(=O)N(Cc2ccco2)C1 (configuration not stated) | inconclusive: 0.891 µM [activator, single point] | –
32 | Cc1cccc(N2C(=O)C(O)=C(C(=O)c3cccs3)C2c2ccc(F)cc2)n1 (configuration not stated) | inconclusive: 35.5 µM [activator, single point] | –
33 | CC(C)C(NC(=O)CSCc1ccc([N+](=O)[O-])cc1)C(C)C | – | inactive: -13.3% [at 10 µM]
34 | CCOC(=O)/C(C(=O)Nc1ccccc1Br)=C1/NC(C)(C)Cc2ccccc21 | – | inactive: -9.21% [at 10 µM]
35 | c1ccc(-c2nnc(-c3ccccc3)nn2)cc1 | – | inactive: -15.4% [at 10 µM]
36 | CN(C(=O)/C=C/c1ccc([N+](=O)[O-])s1)c1ccccc1 | inconclusive: 3.16 µM [activator, single point] | –
37 | CCc1ccccc1N1C(=O)c2ccccc2S1(=O)=O | inconclusive: 0.0891 µM [activator, full curve, poor fit] | –
38 | Cc1ccc(CNc2nc(N)c([N+](=O)[O-])c(Nc3cccc(F)c3)n2)cc1 | inconclusive: 0.794 µM [activator, single point] | –
39 | CC(C)Cn1cnc2c(N)nc3ccccc3c21 | inconclusive: 20 µM [activator, partial curve, poor fit] | –
40 | N[C@H](Cn1ccc(=O)n(Cc2ccccc2C(=O)O)c1=O)C(=O)O | inconclusive: 1.26 µM [activator, partial curve] | –
41 | CSc1ccccc1NC(=O)CN(C)CC(=O)Nc1c(F)cccc1F | inconclusive: 0.398 µM [activator, partial curve] | –
42 | CCN1C(=O)S/C(=C\c2ccc(N3CCOCC3)cc2C)C1=O | inactive | –

Four compounds picked at random from the list so far, as already listed:
Row | Compound | Potency | cytoprotection (ATP increase)
3 | CCOC(=O)c1c(NC(=O)/C=C\C(=O)O)sc(C)c1-c1ccccc1 | inconclusive: 31.6 µM [activator, single point] | –
30 | CCOC(=O)c1c(C)oc2ccc(O)c(CN3CCCCC3)c12 | inactive | –
29 | O=C(COC(=O)c1ccccc1C(=O)c1ccccc1)Nc1cccc([N+](=O)[O-])c1 | inconclusive: 0.501 µM [activator, partial curve] | –
5 | COc1ccccc1C(=O)C1CCCN(C(=O)c2cccc(-n3cccn3)c2)C1 (configuration not stated) | inconclusive: 3.55 µM [activator, single point] | –
